At least one compound was matched to its structure with a doubt left.
System: brain myelination (myelin water fraction)
Experiment: Cross-sectional correlation of infant formula nutrient composition with brain myelination (mcDESPOT MRI, general linear model)
Format: in vivo, infants and young children
Conditions: single GLM of quantified formula nutrients and child age vs myelin water fraction; children up to 5 years; 5 most frequently used formulas
Procedure: This technique provides a quantitative measure, the Myelin Water Fraction (MWF), which is a surrogate marker of myelin content. When mapped as a function of time across early childhood, myelination trajectories can be generated. Infant formula composition: six infant formulas fed to infants participating in study were analyzed for their composition/level of myelin-relevant nutrients. […] Infants included in this study were drawn from a larger longitudinal study of normal brain and behavioral development: the Brown university Assessment of Myelination and Behavior Across Maturation (BAMBAM). To focus on neurotypical development, children with known potential risk factors for learning, neurologic, or psychiatric disorders were specifically excluded during recruitment and enrollment. […] Each infant was scanned using the mcDESPOT (multicomponent Driven Equilibrium Single Pulse Observation of T1 and T2) white matter imaging technique Deoni et al. (Magn. Reson. Med. 2008, 60:1372-1387), which provides a quantitative measure of the myelin water fraction (MWF) at each imaging point throughout the brain. […] Mean values for each region were then determined for each child and used for subsequent developmental analysis and trajectory modeling.

CC/C=C\C/C=C\C/C=C\C/C=C\C/C=C\C/C=C\CCC(=O)O [DHA, docosahexaenoic acid]
nutritional drivers for myelination indicated by the final model: identified drivers

Reference: patent US20180360790A1, “NUTRITIONAL COMPOSITIONS AND INFANT FORMULAS TO PROMOTE MYELINATION IN THE BRAIN” (NESTEC S.A., priority 2015, published 2018)
